According to the supplement of paper PMC6078165:
The reference is the same well before dosing, and untreated signal decays as well.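 Labels refer to human fibroblasts, largely primary: uterine (C12385, HUF), lung (H6013), bone (Hs27A), adrenal (HADF), skin (WS1), plus mammary HMF and breast cancer-associated Hs343T. Cancer lines are basal-like or mesenchymal-like triple-negative breast cancer. The paper counts as hits responses shifting over 3x the replicate standard deviation. The tissue of the other fibroblasts is not given here.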

Test system: MDAMB468
Assay: relative JC-1 red fluorescence (viability) vs pre-drug, coculture with fibroblast (fraction); higher = more viable cancer cells
Protocol: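 JC-1 labelled TNBC cells cocultured 1:1 (1,500 cells each) with CellTrace Violet stained primary or stromal fibroblasts in 384-well plates in FluoroBrite medium, treated with one of 42 anticancer drugs at 0.1, 1, 10 or 100 uM. JC-1 red fluorescence (mitochondrial integrity in cancer cells only) was read by plate reader every 8 h for 72 h. Values are normalised to each well's pre-drug value. The stock of one drug was tenfold lower, so its dose labels may be too high.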

CC(=O)O[C@@]12CO[C@@H]1C[C@H](O)[C@@]1(C)C(=O)[C@H](O)C3=C(C)[C@@H](OC(=O)[C@H](O)[C@@H](NC(=O)OC(C)(C)C)c4ccccc4)C[C@@](O)([C@@H](OC(=O)c4ccccc4)[C@H]21)C3(C)C [Docetaxel]
relative JC-1 red fluorescence
Details | 8 h | 16 h | 24 h | 32 h | 40 h | 48 h | 56 h | 64 h | 72 h
0.1 µM, coculture fibroblast: C12385 | 0.864 | 0.798 | 0.778 | 0.728 | 0.684 | 0.671 | 0.627 | 0.619 | 0.622
0.1 µM, coculture fibroblast: H6013 | 0.8565 | 0.87871 | 0.837 | 0.831 | 0.784 | 0.789 | 0.763 | 0.755 | 0.692
0.1 µM, coculture fibroblast: H6019 | 0.81746 | 0.803 | 0.773 | 0.732 | 0.716 | 0.72 | 0.679 | 0.661 | 0.66
0.1 µM, coculture fibroblast: H6076 | 0.9122 | 0.958 | 0.8893 | 0.858 | 0.787 | 0.76 | 0.692 | 0.6582 | 0.674
0.1 µM, coculture fibroblast: H6231 | 0.828 | 0.909 | 0.81 | 0.821 | 0.752 | 0.726 | 0.67 | 0.633 | 0.636
0.1 µM, coculture fibroblast: HADF | 0.879 | 0.8382 | 0.787 | 0.774 | 0.717 | 0.703 | 0.645 | 0.636 | 0.576
0.1 µM, coculture fibroblast: HCFa | 0.845 | 0.827 | 0.768 | 0.716 | 0.652 | 0.639 | 0.575 | 0.538 | 0.48
0.1 µM, coculture fibroblast: HCPF | 0.893 | 0.915 | 0.8786 | 0.89 | 0.792 | 0.764 | 0.69 | 0.666 | 0.656
0.1 µM, coculture fibroblast: HHSteC | 0.865 | 0.8449 | 0.809 | 0.756 | 0.702 | 0.702 | 0.619 | 0.5843 | 0.52268
0.1 µM, coculture fibroblast: HMF | 0.859 | 0.989 | 0.893 | 0.857 | 0.7571 | 0.7229 | 0.644 | 0.612 | 0.581
0.1 µM, coculture fibroblast: HPFa | 0.949 | 0.902 | 0.859 | 0.795 | 0.774 | 0.765 | 0.699 | 0.693 | 0.615
0.1 µM, coculture fibroblast: HUF | 0.9076 | 0.805 | 0.728 | 0.648 | 0.5954 | 0.569 | 0.5177 | 0.49724 | 0.4822
0.1 µM, coculture fibroblast: Hs5 | 0.888 | 0.973 | 0.935 | 0.91 | 0.825 | 0.767 | 0.698 | 0.663 | 0.673
0.1 µM, coculture fibroblast: Hs27A | 0.858 | 0.82 | 0.756 | 0.748 | 0.678 | 0.6704 | 0.6436 | 0.6294 | 0.59
0.1 µM, coculture fibroblast: Hs343T | 0.8673 | 0.937 | 0.867 | 0.8414 | 0.7538 | 0.726 | 0.665 | 0.639 | 0.604
0.1 µM, coculture fibroblast: WS1 | 0.83 | 0.7616 | 0.699 | 0.632 | 0.563 | 0.527 | 0.494 | 0.468 | 0.46
1 µM, coculture fibroblast: C12385 | 0.88 | 0.849 | 0.782 | 0.7289 | 0.676 | 0.672 | 0.633 | 0.607 | 0.598
1 µM, coculture fibroblast: H6013 | 0.8947 | 0.8394 | 0.834 | 0.817 | 0.7869 | 0.8002 | 0.782 | 0.7781 | 0.722
1 µM, coculture fibroblast: H6019 | 0.859 | 0.8011 | 0.7984 | 0.77037 | 0.7509 | 0.754 | 0.707 | 0.698 | 0.694
1 µM, coculture fibroblast: H6076 | 0.925 | 0.933 | 0.887 | 0.912 | 0.834 | 0.832 | 0.788 | 0.76 | 0.827
1 µM, coculture fibroblast: H6231 | 0.825 | 0.8901 | 0.801 | 0.789 | 0.7024 | 0.686 | 0.6279 | 0.6104 | 0.609
1 µM, coculture fibroblast: HADF | 0.932 | 0.844 | 0.849 | 0.824 | 0.78 | 0.769 | 0.729 | 0.711 | 0.644
1 µM, coculture fibroblast: HCFa | 0.881 | 0.832 | 0.781 | 0.775 | 0.705 | 0.702 | 0.639 | 0.603 | 0.541
1 µM, coculture fibroblast: HCPF | 0.902 | 0.952 | 0.847 | 0.855 | 0.7769 | 0.749 | 0.689 | 0.676 | 0.665
1 µM, coculture fibroblast: HHSteC | 0.931 | 0.874 | 0.856 | 0.814 | 0.774 | 0.777 | 0.699 | 0.678 | 0.62
1 µM, coculture fibroblast: HMF | 0.852 | 0.938 | 0.872 | 0.847 | 0.765 | 0.745 | 0.673 | 0.645 | 0.626
1 µM, coculture fibroblast: HPFa | 0.952 | 0.94277 | 0.892 | 0.839 | 0.813 | 0.827 | 0.765 | 0.759 | 0.688
1 µM, coculture fibroblast: HUF | 0.908 | 0.802 | 0.728 | 0.648 | 0.587 | 0.567 | 0.515 | 0.494 | 0.474
1 µM, coculture fibroblast: Hs5 | 0.805 | 0.975 | 0.934 | 0.914 | 0.84 | 0.793 | 0.745 | 0.701 | 0.727
1 µM, coculture fibroblast: Hs27A | 0.891 | 0.8406 | 0.849 | 0.859 | 0.826 | 0.833 | 0.825 | 0.838 | 0.78
1 µM, coculture fibroblast: Hs343T | 0.852 | 0.86 | 0.84 | 0.853 | 0.769 | 0.752 | 0.699 | 0.673 | 0.676
1 µM, coculture fibroblast: WS1 | 0.8735 | 0.796 | 0.7381 | 0.677 | 0.638 | 0.62 | 0.593 | 0.577 | 0.581
